Measurements as given in PubChem BioAssay AID330 (DTP/NCI, 2004).
The list is a part of this screen's results and no random one: it is rich in T/C values a quarter to a half above the control, in often repeated tests (any T/C) and in doses without a T/C. Other doses and runs of a compound stand elsewhere. T/C is the treated group as % of the vehicle group. Some entries give survivors of the animals treated and no T/C: the source holds a T/C of zero for them, seemingly a mark for toxic or unscored doses. Some doses without a T/C left all or most animals alive at the check, yet need not have been tolerated: survival well below the control is almost never listed, so the zero probably covers shortened survival too. Survivors were counted at the toxicity check, usually on the fifth day, unless a day is given; later deaths do not show. Schedules are NCI's codes, read here as Q, the interval in days (D) or hours (H), X, the number of doses. Some molecules as drawn cover several salts, stereoisomers or complexes of the source; a dose is that of the sample tested. Some entries were tested several times; their values stand side by side, smallest first. For survival time, the PubChem record calls one and a half times the control and up active, and a quarter to a half above the control has no call in these data; cut-offs in other NCI protocols can differ. Some T/C values carry the count of animals alive at the toxicity check (mostly the fifth day); without a count, all were alive then.

Test system: P388 leukemia ip, CD2F1 mice, survival T/C
Test: NCI In Vivo Anticancer Drug Screen. Data for tumor model P388 Leukemia (intraperitoneal) in CD2F1 (CDF1) mice
Conditions: T/C endpoint: median survival time, higher T/C = longer survival
[1] = dose: 100.0 mg/kg/injection, schedule: Q01DX009 (ip), vehicle: water
[2] = dose: 200.0 mg/kg/injection, schedule: Q01DX009 (ip), vehicle: water
[3] = dose: 200.0 mg/kg/injection, schedule: Q01DX005 (ip), vehicle: Klucel (hydroxypropylcellulose) (HPC)
[4] = dose: 400.0 mg/kg/injection, schedule: Q01DX001 (ip), vehicle: Klucel (hydroxypropylcellulose) (HPC)
[5] = dose: 25.0 mg/kg/injection, schedule: Q01DX009 (ip), vehicle: saline
[6] = dose: 50.0 mg/kg/injection, schedule: Q01DX009 (ip), vehicle: saline
[7] = dose: 100.0 mg/kg/injection, schedule: Q01DX009 (ip), vehicle: saline
[8] = dose: 200.0 mg/kg/injection, schedule: Q01DX009 (ip), vehicle: saline

SMILES: COc1cccc2c1C(=O)c1c(O)c3c(c(O)c1C2=O)C[C@@](O)(C(C)=O)C[C@@H]3OC1CC(N(Cc2ccccc2)Cc2ccccc2)C(O)C(C)O1 (stereo not given in full)
- T/C (dose: 3.13 mg/kg/injection, schedule: Q01DX009 (ip), vehicle: water): 140 % of control
- T/C (dose: 6.25 mg/kg/injection, schedule: Q01DX009 (ip), vehicle: water): 140 % of control
- T/C (dose: 7.78 mg/kg/injection, schedule: Q04DX003 (ip), vehicle: water): 140 % of control
- T/C (dose: 36.0 mg/kg/injection, schedule: Q04DX003 (ip), vehicle: water): 140 % of control
- survivor count [1]: 3 of 3
- survivor count [2]: 3 of 3

SMILES: COc1cc2nncc(Cl)c2cc1OC
- survivor count (dose: 100.0 mg/kg/injection, schedule: Q01DX005 (ip), vehicle: Klucel (hydroxypropylcellulose) (HPC)): 3 of 6
- survivor count [3]: 1 of 6

SMILES: O=C1NC(=O)C2C1C1C3OC3C2C2C3C(=O)NC(=O)C3C12 (stereo not given)
- T/C (dose: 25.0 mg/kg/injection, schedule: Q01DX009 (ip), vehicle: saline with Tween-80): 130 % of control
- T/C (dose: 50.0 mg/kg/injection, schedule: Q01DX009 (ip), vehicle: saline with Tween-80): 127 and 141 % of control
- T/C (dose: 200.0 mg/kg/injection, schedule: Q01DX009 (ip), vehicle: saline with Tween-80): 141 % of control

SMILES: CCOc1nc(N)nc(C)c1N=Nc1ccc(Cl)cc1Cl
- survivor count (dose: 240.0 mg/kg/injection, schedule: Q01DX005 (ip), vehicle: Klucel + Tween-80): 0 of 6

SMILES: COc1cc(NS(C)(=O)=O)ccc1Nc1c2ccc(N(C)C)cc2nc2cc(N(C)C)ccc12
- survivor count (dose: 60.0 mg/kg/injection, schedule: Q01DX005 (ip), vehicle: Klucel (hydroxypropylcellulose) (HPC)): 4 of 6
- survivor count (dose: 120.0 mg/kg/injection, schedule: Q01DX005 (ip), vehicle: Klucel (hydroxypropylcellulose) (HPC)): 6 of 6
- survivor count (dose: 240.0 mg/kg/injection, schedule: Q01DX005 (ip), vehicle: Klucel (hydroxypropylcellulose) (HPC)): 2 of 6

SMILES: O=c1cc[nH]c2ccc3ccccc3c12
- survivor count [4]: 0 of 5

SMILES: CCC(=O)OCc1c(Cl)nc2n1CCS2
- survivor count [4]: 2 of 6

SMILES: CCCCCCCCCCCCCCCC(=O)N(CCCCN(C(=O)CCCCCCCCCCCCCCC)C(C)CCCN(CC)CC)C(C)CCCN(CC)CC (stereo not given)
- survivor count (dose: 100.0 mg/kg/injection, schedule: Q01DX009 (ip), vehicle: other): 0 of 6
- survivor count (dose: 200.0 mg/kg/injection, schedule: Q01DX009 (ip), vehicle: other): 0 of 6
- survivor count (dose: 400.0 mg/kg/injection, schedule: Q01DX009 (ip), vehicle: other): 0 of 6

SMILES: CCOP(=O)(O)OCC.CCOP(=O)(O)OCC.[O]=[V]
- survivor count [4]: 1 of 6

SMILES: CNC1C(=O)C(C)C(O)(C(CC(C)C(O)/C=C/C=C/CNC(=O)C(C)(C)C(O)\C(C)=C/C=C\C=C\Cc2cnc(C)o2)OC)C12C(=O)OC2COC (stereo not given) (tested in a mixture with another compound)
- survivor count (dose: 4.0 mg/kg/injection, schedule: Q01DX005 (ip), vehicle: DMSO): 4 of 6
- survivor count (dose: 8.0 mg/kg/injection, schedule: Q01DX005 (ip), vehicle: DMSO): 1 of 6
- survivor count (dose: 16.0 mg/kg/injection, schedule: Q01DX005 (ip), vehicle: DMSO): 0 of 6

SMILES: CNC1C(O)C2Oc3c(cc(O)c4c3C(=O)c3cc5c(c(O)c3C4=O)C(OC3OC(C)C(OC)C(C)(OC)C3OC)CC(C)(O)C5C(=O)OC)C(C)(O2)C1O (stereo not given)
- survivor count (dose: 50.0 mg/kg/injection, schedule: Q04DX003 (ip), vehicle: other): 5 of 6

SMILES: CN(C)C(=O)n1cnc([N+](=O)[O-])c1
- survivor count (dose: 400.0 mg/kg/injection, schedule: Q01DX001 (ip), vehicle: saline with Tween-80): 3 of 6

SMILES: C=C(C)C(=NC1CCCCC1)NC(C)(C)C
- survivor count (dose: 50.0 mg/kg/injection, schedule: Q01DX005 (ip), vehicle: Klucel (hydroxypropylcellulose) (HPC)): 5 of 5
- survivor count [3]: 2 of 5

SMILES: C[n+]1cc2ccccc2c2ccccc21
- T/C [5]: 128 % of control
- T/C (dose: 50.0 mg/kg/injection, schedule: Q01DX005 (ip), vehicle: saline): 132 % of control
- survivor count [6]: 3 of 6
- survivor count (dose: 100.0 mg/kg/injection, schedule: Q01DX005 (ip), vehicle: saline): 0 of 5 and 1 of 5
- survivor count [7]: 0 of 6
- survivor count [1]: 1 of 6
- survivor count (dose: 200.0 mg/kg/injection, schedule: Q01DX005 (ip), vehicle: saline): 0 of 5
- survivor count [2]: 0 of 6
- survivor count (dose: 400.0 mg/kg/injection, schedule: Q01DX009 (ip), vehicle: water): 0 of 6

SMILES: O=C(c1ccccc1)N1C=CC(=Cc2ccccc2)C=C1
- survivor count (dose: 12.5 mg/kg/injection, schedule: Q01DX009 (ip), vehicle: Klucel (hydroxypropylcellulose) (HPC)): 3 of 6
- survivor count (dose: 25.0 mg/kg/injection, schedule: Q01DX009 (ip), vehicle: Klucel (hydroxypropylcellulose) (HPC)): 3 of 6
- survivor count (dose: 50.0 mg/kg/injection, schedule: Q01DX009 (ip), vehicle: Klucel (hydroxypropylcellulose) (HPC)): 1 of 6
- survivor count (dose: 100.0 mg/kg/injection, schedule: Q01DX009 (ip), vehicle: Klucel (hydroxypropylcellulose) (HPC)): 4 of 6
- survivor count (dose: 200.0 mg/kg/injection, schedule: Q01DX009 (ip), vehicle: Klucel (hydroxypropylcellulose) (HPC)): 0 of 6

SMILES: CCCCCCCCCCCCCCC(Br)C(=O)O (stereo not given)
- survivor count [8]: 6 of 6

SMILES: O=S(=O)([O-])[O-].OCCNCCNCC[OH2+].OCCNCCNCC[OH2+].[Ni+2]
- survivor count [6]: 6 of 6

SMILES: O=C(Nc1cccc([N+](=O)[O-])c1)OCc1ccc2c(c1)OCO2
- survivor count (dose: 240.0 mg/kg/injection, schedule: Q01DX005 (ip), vehicle: saline with Tween-80): 6 of 6

SMILES: CCCCCCCC(=O)N/N=C/c1ccc(O)c(OCC)c1
- survivor count (dose: 200.0 mg/kg/injection, schedule: Q01DX005 (ip), vehicle: saline with Tween-80): 5 of 5

SMILES: C[CH2][Sn]([CH2]C)([O]C(C)=O)[O][Sn]([CH2]C)([CH2]C)[O]C(C)=O
- T/C (dose: 0.78 mg/kg/injection, schedule: Q01DX009 (ip), vehicle: saline): 133 % of control
- T/C (dose: 1.56 mg/kg/injection, schedule: Q01DX009 (ip), vehicle: saline): 134 % of control
- T/C (dose: 3.12 mg/kg/injection, schedule: Q01DX009 (ip), vehicle: saline): 126 % of control [4 of 6 alive]
- survivor count (dose: 6.25 mg/kg/injection, schedule: Q01DX009 (ip), vehicle: saline): 0 of 6
- survivor count (dose: 12.5 mg/kg/injection, schedule: Q01DX009 (ip), vehicle: saline): 3 of 6
- survivor count [5]: 0 of 6
- survivor count [6]: 0 of 6
- survivor count [7]: 0 of 6
- survivor count [8]: 0 of 6
